Values from PubChem BioAssay AID1224829 (NIAID, 2016)

Screen: 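Genes needed for LPS-driven NF-kappaB p65 nuclear entry in mouse macrophages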 (follow-up of hits)
System: mouse RAW264.7 G9 macrophage reporter cells
Reagents: single siRNA against mouse genes, 100 nM
Duration: 2 days of siRNA knock-down, then 40 min of LPS before fixing
Treatment: LPS (Salmonella minnesota R595) at 10 ng/ml
Read-out: 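Imaging of GFP-p65 after 40 min of LPS; nuclear over perinuclear ring intensity ratio, scaled to plate median and non-targeting control wells, given as z-score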
Reading the numbers: p65 translocation z-score and gene median z-score, per vendor: higher = more nuclear NF-kappaB p65 after LPS
Rule for the call: 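An siRNA is called active when the mean z-score of its two replicates is above 2 or below -2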
Calls: active = changed p65 translocation (either direction); inactive = no clear change
Here is one part, drawn at random, of about 3,800 deposited reagents. 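Calls cover raised and lowered translocation; gene median uses one vendor's three siRNAs; qiagen siRNAs acted more weakly than ambion siRNAs.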 A number with no mark means an inactive call. The numbers tell different reagents against one gene apart.

"p65 translocation z-score, replicate mean","p65 translocation z-score, replicate 1","p65 translocation z-score, replicate 2","gene median z-score, per vendor",Target gene,reagent,siRNA vendor or control pool
-3.92 (active),-3.92,,-2.87,Tgs1,1,ambion single siRNA
1.48,2.26,0.696,-2.87,Tgs1,2,ambion single siRNA
-6.47 (active),-10.1,-2.87,-2.87,Tgs1,3,ambion single siRNA
1.36,0.869,1.85,0.513,Tgs1,4,qiagen single siRNA
0.941,0.157,1.72,0.513,Tgs1,5,qiagen single siRNA
-2.87 (active),-2.4,-3.33,0.513,Tgs1,6,qiagen single siRNA
-1.48,-1.17,-1.79,-1.48,Shbg,1,ambion single siRNA
-2.85 (active),-2.39,-3.3,-1.48,Shbg,2,ambion single siRNA
-0.329,-0.362,-0.296,-1.48,Shbg,3,ambion single siRNA
0.14,-0.982,1.26,-0.192,Shbg,4,qiagen single siRNA
0.809,0.599,1.02,-0.192,Shbg,5,qiagen single siRNA
-2.32 (active),-1.29,-3.36,-0.192,Shbg,6,qiagen single siRNA
0.204,0.808,-0.4,-0.216,Lrrc59,1,ambion single siRNA
0.126,-0.0329,0.285,-0.216,Lrrc59,2,ambion single siRNA
-2.81 (active),-2.04,-3.58,-0.216,Lrrc59,3,ambion single siRNA
5.46 (active),5.01,5.91,-0.467,Lrrc59,4,qiagen single siRNA
-2.7 (active),-1.9,-3.5,-0.467,Lrrc59,5,qiagen single siRNA
-0.467,-0.072,-0.861,-0.467,Lrrc59,6,qiagen single siRNA
2.86 (active),4.17,1.56,-1.57,Ttf2,1,ambion single siRNA
-4.51 (active),-5.2,-3.82,-1.57,Ttf2,2,ambion single siRNA
-2.15 (active),0.689,-4.98,-1.57,Ttf2,3,ambion single siRNA
0.361,0.00777,0.715,0.445,Ttf2,4,qiagen single siRNA
1.24,0.175,2.31,0.445,Ttf2,5,qiagen single siRNA
0.173,-0.641,0.988,0.445,Ttf2,6,qiagen single siRNA
0.902,0.682,1.12,0.362,Nfyb,1,ambion single siRNA
-1.62,-0.879,-2.36,0.362,Nfyb,2,ambion single siRNA
0.407,0.771,0.0426,0.362,Nfyb,3,ambion single siRNA
1.5,0.674,2.32,2.17,Nfyb,4,qiagen single siRNA
2.17 (active),2.21,2.13,2.17,Nfyb,5,qiagen single siRNA
0.826,-0.773,2.43,2.17,Nfyb,6,qiagen single siRNA
2.21 (active),2.46,1.95,-3.16,Spi1,1,ambion single siRNA
-3.24 (active),-3.72,-2.76,-3.16,Spi1,2,ambion single siRNA
-3.82 (active),-3.56,-4.09,-3.16,Spi1,3,ambion single siRNA
-3.9 (active),-3.9,,-2.13,Spi1,4,qiagen single siRNA
-0.632,-0.632,,-2.13,Spi1,5,qiagen single siRNA
-2.13 (active),-2.13,,-2.13,Spi1,6,qiagen single siRNA
0.172,0.128,0.216,-1.8,Epo,1,ambion single siRNA
-4.19 (active),-3.72,-4.66,-1.8,Epo,2,ambion single siRNA
-1.76,-4.61,1.1,-1.8,Epo,3,ambion single siRNA
1.35,0.844,1.87,0.844,Epo,4,qiagen single siRNA
-2.3 (active),-2.3,,0.844,Epo,5,qiagen single siRNA
0.542,-1.49,2.57,0.844,Epo,6,qiagen single siRNA
-2.6 (active),-3.59,-1.61,-3.59,Rarres2,1,ambion single siRNA
-5.76 (active),-5.75,-5.78,-3.59,Rarres2,2,ambion single siRNA
-1.45,-1.45,,-3.59,Rarres2,3,ambion single siRNA
-1.07,-1.28,-0.866,-1.28,Rarres2,4,qiagen single siRNA
0.366,0.366,,-1.28,Rarres2,5,qiagen single siRNA
-2.51 (active),-3.36,-1.67,-1.28,Rarres2,6,qiagen single siRNA
-1.14,-1.58,-0.713,-1.07,Hmox2,1,ambion single siRNA
-1.93,-2.43,-1.43,-1.07,Hmox2,2,ambion single siRNA
1.34,2.76,-0.0787,-1.07,Hmox2,3,ambion single siRNA
0.819,0.0144,1.62,0.0144,Hmox2,4,qiagen single siRNA
-1.66,-1.66,,0.0144,Hmox2,5,qiagen single siRNA
0.0607,-0.407,0.529,0.0144,Hmox2,6,qiagen single siRNA
-2.15 (active),-2.15,,-1.32,Chst8,1,ambion single siRNA
-0.483,-0.483,,-1.32,Chst8,2,ambion single siRNA
1.16,5.24,-2.92,-1.32,Chst8,3,ambion single siRNA
0.967,0.509,1.43,-0.492,Chst8,4,qiagen single siRNA
-1.4,-1.6,-1.19,-0.492,Chst8,5,qiagen single siRNA
-0.492,0.0188,-1,-0.492,Chst8,6,qiagen single siRNA
-1.95,-1.92,-1.98,1.75,Or2t46,1,ambion single siRNA
2.8 (active),4.16,1.44,1.75,Or2t46,2,ambion single siRNA
2.54 (active),3.03,2.06,1.75,Or2t46,3,ambion single siRNA
-0.857,-1.36,-0.355,-1.32,Or2t46,4,qiagen single siRNA
-2.43 (active),-1.28,-3.58,-1.32,Or2t46,5,qiagen single siRNA
-1.13,-1.67,-0.604,-1.32,Or2t46,6,qiagen single siRNA

9 of these entries, set out differently.
| p65 translocation z-score, replicate mean | p65 translocation z-score, replicate 1 | p65 translocation z-score, replicate 2 | gene median z-score, per vendor | Target gene | reagent | siRNA vendor or control pool |
| --- | --- | --- | --- | --- | --- | --- |
| -1.14 | -1.58 | -0.713 | -1.07 | Hmox2 | 1 | ambion single siRNA |
| -1.93 | -2.43 | -1.43 | -1.07 | Hmox2 | 2 | ambion single siRNA |
| 1.34 | 2.76 | -0.0787 | -1.07 | Hmox2 | 3 | ambion single siRNA |
| 0.819 | 0.0144 | 1.62 | 0.0144 | Hmox2 | 4 | qiagen single siRNA |
| -1.66 | -1.66 | – | 0.0144 | Hmox2 | 5 | qiagen single siRNA |
| 0.0607 | -0.407 | 0.529 | 0.0144 | Hmox2 | 6 | qiagen single siRNA |
| -2.15 (active) | -2.15 | – | -1.32 | Chst8 | 1 | ambion single siRNA |
| -0.483 | -0.483 | – | -1.32 | Chst8 | 2 | ambion single siRNA |
| 1.16 | 5.24 | -2.92 | -1.32 | Chst8 | 3 | ambion single siRNA |
